# In all, about 330,000 compounds went through this assay and about 7,700 (2.3%) were called active. Inconclusive means that the source gave no clear call. Such entries were picked first, then a sample of the others. Calls follow the shape of the dose curve; as a rule, active = well fitted inhibition curve with a large enough effect; inconclusive = small, poorly fitted or top-dose-only effect, or effect the other way; inactive = flat fitted curve, though single readings scatter. A potency beside an inconclusive call is a rough fit, not a confirmed value.
# Assay: qHTS screen for small molecules that inhibit ELG1-dependent DNA repair in human embryonic kidney (HEK293T) cells expressing luciferase-tagged ELG1; also: nearly all actives have a fitted effect of over 55% in size
# Conditions: HEK293T ELG1-luciferase reporter, luminescence, 16 h, DNA damage induced by 5-fluorouridine; activity change, negative = inhibition: at 46.1 µM (top of the series)
# Summary of the method: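 Reporter activity after DNA damage by 5-fluorouridine is monitored. Compound-treated cells incubate 16 hr at 37 °C, then ONE-Glo is added for 30 min before luminescence reading.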
# % is scaled to controls: 0 for no effect and ±100 for the full control effect; potency is read from the fitted curve at half-maximal effect.
Compound,"activity change, negative = inhibition",Potency
COc1ccccc1N(CC(=O)Nc1ccc2c(c1)OCCO2)S(=O)(=O)c1ccc(C)cc1,inactive: -22%,–
CC(=O)c1ccccc1NC(=O)COC(=O)C1CCCN1S(=O)(=O)c1ccccc1F (stereo unspecified),–,"inconclusive: 4.61 µM [activator, single point]"
O=C(CCNC(=O)C1CCN(S(=O)(=O)c2ccccc2)CC1)NCc1ccc(Cl)c(Cl)c1,inactive: -9.2%,–
O=C(Nc1nc2c(Cl)cccc2s1)c1ccc([N+](=O)[O-])o1,–,"inconclusive: 29.1 µM [inhibitor, single point]"
c1cc2c(cc1-c1csc(NNC3=NCCCCC3)n1)OCCO2,–,"inconclusive: 3.66 µM [activator, partial curve]"
COc1ccc(/C=N/Nc2nc(C)cc(-c3ccccc3)n2)c(OC)c1,–,"inconclusive: 25.1 µM [inhibitor, partial curve, poor fit]"
O=C(c1cc(COc2ccc(F)cc2Cl)on1)N(CCO)Cc1cccs1,inactive: 25.4%,–
C[C@H](CO)N1C[C@H](C)[C@@H](CN(C)S(=O)(=O)c2ccc(F)cc2)Oc2ccc(NC(=O)Nc3ccccc3)cc2C1=O,–,active: 23.1 µM
CCCCCCSc1cccc(-c2nc3cc(C)ccn3c2NCc2ccccc2)c1,–,"inconclusive: 6.31 µM [inhibitor, single point]"
N#CC1(NC(=O)COC(=O)C23CC4CC(CC(O)(C4)C2)C3)CCCCC1,inactive: 12.4%,–
Cc1ccc(Nc2nc(N3CCN(C)CC3)nc(N)c2[N+](=O)[O-])cc1C,–,active: 8.2 µM
O=c1[nH]c(SCc2ccccc2)nc2ccsc12,–,"inconclusive: 16.4 µM [activator, partial curve]"
Cc1cccc(CSCCNC(=S)Nc2ccccc2)c1,–,"inconclusive: 23.1 µM [inhibitor, partial curve, poor fit]"
O=C(Nc1sc2c(c1C(=O)O)CCCCC2)c1cccnc1,inactive: 19.2%,–
COC(=O)c1cccc(OCC(O)Cn2cnc3cc(C)c(C)cc32)c1 (stereo unspecified),–,"inconclusive: 29.1 µM [inhibitor, partial curve, poor fit]"
Cc1ccc(Nc2nc3ccccc3n3cnnc23)cc1Cl,inactive: 29.9%,–
CCN1CCN(Cc2ccc(NC(=O)c3ccc(C)c(NC(=O)c4ccnnc4)c3)cc2C(F)(F)F)CC1,inactive: 10.3%,–
Fc1ccc2[nH]c3c(N4CCc5ccccc5C4)ncnc3c2c1,–,active: 1.3 µM
Cc1sc2nc(COC(=O)c3cccc(S(=O)(=O)N(C)c4ccccc4)c3)[nH]c(=O)c2c1C,–,"inconclusive: 4.11 µM [inhibitor, single point]"
COc1ccc(C(=O)c2c(C(F)(F)F)oc3c2C(=O)c2ccccc2C3=O)cc1,–,active: 10.3 µM
CCC(=O)Nc1ccccc1Nc1cc(C#N)c(C#N)cc1[N+](=O)[O-],inactive: -3.86%,–
COc1cccc(NC(=S)NC(=O)/C=C/c2ccco2)c1,–,"inconclusive: 13 µM [activator, partial curve, poor fit]"
CCC(=O)c1ccc(OCc2ccc(C#N)cc2)cc1,–,"inconclusive: 20.6 µM [activator, partial curve]"
COc1ccc(NC(=O)CCCN2C(=O)/C(=C\c3ccco3)SC2=S)cc1,–,"inconclusive: 16.4 µM [inhibitor, partial curve, poor fit]"

Compound,"activity change, negative = inhibition",Potency
Cc1cc(C)cc(NC(=S)NCc2ccc3[nH]c4c(c3c2)CCCC4)c1,–,"inconclusive: 18.4 µM [activator, single point]"
CC(=O)NC(c1ccco1)c1cc(F)c2cccnc2c1O (stereo unspecified),–,"inconclusive: 29.1 µM [inhibitor, single point]"
COc1ccc(NC(=O)c2cc([N+](=O)[O-])ccc2N2CCN(C)CC2)cc1,–,"inconclusive: 18.3 µM [activator, partial curve, poor fit]"
O=C(CN1CCCC1)Nc1ccccc1Cl,inactive: 0%,–
COc1ccc(CCN(C)C(=O)c2ccc(C)c(S(=O)(=O)N3CCCCC3)c2)cc1OC,–,"inconclusive: 23.1 µM [inhibitor, single point]"
COc1ccccc1-c1sc2ccccc2c1-c1ccc(OCCN2CCCCC2)cc1,inactive: 26.1%,–
CS(=O)(=O)c1ccc2nc(NC(=O)c3ccccc3Cl)sc2c1,inactive: 15.7%,–
O=C(CN1C(=O)NC2(CCOc3ccccc32)C1=O)c1ccc(F)c(F)c1 (stereo unspecified),inactive: 21.3%,–
COc1ccc(/C=N/NC2=NCCCCC2)c(OC)c1,inactive: 24.7%,–
Nc1nonc1-c1noc(N2CCOCC2)n1,–,"inconclusive: 10.3 µM [activator, partial curve]"
O=C(NNC(=O)c1ccccc1OCc1ccccc1)c1ccccc1O,–,"inconclusive: 2.06 µM [inhibitor, partial curve]"
Fc1cccc(Cl)c1COc1ccc(-c2nnco2)cc1,–,"inconclusive: 14.6 µM [activator, partial curve]"
C=CCN=C(NC#N)SCC(=O)NCc1ccccc1,inactive: 2.72%,–
C#CCSc1nsc(SCC#C)c1C#N,–,"inconclusive: 29.1 µM [activator, single point]"
CC(=O)Nc1cccc(-c2csc(Nc3cccc(C)n3)n2)c1,–,"inconclusive: 2.59 µM [activator, partial curve]"
CN=c1sc2ccccc2n1CC(O)COc1ccccc1 (stereo unspecified),inactive: -11.1%,–
C[C@@H]1CN([C@@H](C)CO)C(=O)c2cc(NC(=O)C3CC3)ccc2O[C@@H]1CN(C)Cc1ccc(Cl)c(Cl)c1,–,"inconclusive: 32.6 µM [inhibitor, partial curve, poor fit]"
C/C(=N\NC(=O)c1ccc(F)cc1)c1ccccn1,–,"inconclusive: 5.8 µM [activator, partial curve]"
CC(C)(C)/C(O)=C/c1nc2cc(Cl)ccc2oc1=O,–,"inconclusive: 20.6 µM [inhibitor, partial curve]"
Cc1nc(-c2ccncc2)nc(NCCNc2ncccc2C(F)(F)F)c1Cl,inactive: -21.7%,–
O=C(O)c1cccc(-c2ccc(/C=c3/sc4nc5ccccc5n4c3=O)o2)c1,–,"inconclusive: 23.1 µM [activator, partial curve, poor fit]"
COc1ccc(N2CCN(C(=O)Cn3nnc(-c4ccccc4N)n3)CC2)cc1,inactive: -17.8%,–
O=C(CC1CCCC1)Nc1ccc(Cl)c(S(=O)(=O)N2CCOCC2)c1,–,active: 20.6 µM
COc1ccc(-c2nn(-c3ccccc3)cc2C(=O)NCC(c2cccs2)N2CCOCC2)cc1 (stereo unspecified),–,active: 4.61 µM

# 3 compounds from above, arranged by heavy-atom count, smallest number first.
Compound,"activity change, negative = inhibition",Potency
O=C(CN1CCCC1)Nc1ccccc1Cl,inactive: 0%,–
COc1ccc(/C=N/Nc2nc(C)cc(-c3ccccc3)n2)c(OC)c1,–,"inconclusive: 25.1 µM [inhibitor, partial curve, poor fit]"
O=C(c1cc(COc2ccc(F)cc2Cl)on1)N(CCO)Cc1cccs1,inactive: 25.4%,–

# Next structures follow.

Compound,"activity change, negative = inhibition",Potency
O=C(CCSc1ccc(Br)cc1)Nc1cccnc1,inactive: -4.04%,–
CC(C)c1nc2sc3c(NCc4ccco4)ncnc3c2c2c1COC(C)(C)C2,–,"inconclusive: 23.1 µM [inhibitor, single point]"
FC(F)(F)C1CCCN(c2nsc3ccccc23)C1 (stereo unspecified),–,"inconclusive: 23.1 µM [activator, partial curve, poor fit]"
Cc1ccc(S(=O)(=O)N2CCN(S(=O)(=O)c3cccs3)CC2)cc1,–,"inconclusive: 20.6 µM [activator, single point]"
Cc1ccc(S(=O)(=O)N2CCC(C(=O)NCCC3=CCCCC3)CC2)cc1C,inactive: 5.56%,–
COc1cc(NC(=O)CN2CCN(c3ccccc3F)CC2)cc(OC)c1,–,"inconclusive: 13 µM [inhibitor, single point]"
COc1ccc(-c2oc(=O)c3cc(OC)c(OC)cc3c2/C=C/c2ccc(F)cc2)cc1,–,"inconclusive: 6.51 µM [inhibitor, partial curve, poor fit]"
CCC(OC(=O)c1cc2sccc2n1C)C(=O)NCc1ccco1 (stereo unspecified),–,"inconclusive: 29.1 µM [inhibitor, single point]"
COc1ccc(Cn2nnnc2C(c2cc3cc(C)ccc3[nH]c2=O)N2CCOCC2)cc1 (stereo unspecified),–,"inconclusive: 4.11 µM [inhibitor, single point]"
COCCCNC(=S)NNC(=S)Nc1ccc(OC)cc1,inactive: -27.1%,–
O=S(=O)(Nc1nc2ccccc2nc1Nc1cccc(S(=O)(=O)N2CCCCC2)c1)c1ccccc1,–,"inconclusive: 9.2 µM [inhibitor, partial curve]"
Cc1ccc(S(=O)(=O)N2CCN(CC(=O)Nc3ccc4c(c3)CCC4)CC2)cc1C,–,"inconclusive: 23.1 µM [inhibitor, partial curve, poor fit]"
Cc1cc(C(=O)NNC(=O)CN2C(=O)NC(C)(c3ccccc3)C2=O)c(C)o1 (stereo unspecified),inactive: 8.14%,–
CCOC(=O)C1=C(C)Nc2sc(C(=O)c3ccc(Br)cc3)c(N)c2C1c1ccc(C(=O)OC)cc1 (stereo unspecified),–,"inconclusive: 6.51 µM [inhibitor, partial curve]"
COc1ccc(NC(=O)Nc2cccs2)cc1Cl,–,"inconclusive: 14.6 µM [activator, partial curve]"
O=C(OCc1ccc(-c2ccccc2)cc1)c1cccc(O)c1,–,"inconclusive: 20.6 µM [activator, partial curve]"
O=C(CN1C(=O)NC(Cc2c[nH]c3ccccc23)C1=O)Nc1cccc(S(=O)(=O)N2CCCCCC2)c1 (stereo unspecified),–,active: 20.6 µM
Cc1nc(NC(=O)c2ccccc2)nc2cc3c(cc12)OCO3,–,"inconclusive: 14.6 µM [activator, partial curve]"
C=CCNC(=O)c1c(Cl)cnn1-c1ccc(C)cc1,–,"inconclusive: 16.4 µM [activator, partial curve]"
CCOc1ccccc1OCC(=O)Nc1ccc2[nH]c(=O)[nH]c2c1,inactive: 3.29%,–
CCc1ccc(-c2nc(CN3CCC(C(=O)NCc4ccc(F)cc4)CC3)c(C)o2)cc1,–,active: 14.6 µM
Cn1nc(-c2ccc(OCC(=O)Nc3cccnc3)cc2)c2ccccc2c1=O,–,"inconclusive: 10.3 µM [inhibitor, partial curve, poor fit]"
CCOc1ccc(-n2cc(C(=O)Nc3cccc(OC)c3)c3cc(OC)c(OC)cc3c2=O)cc1,–,"inconclusive: 16.4 µM [inhibitor, partial curve]"
